The values below come from paper PMC11765556, “Cytosine Methylation Changes the Preferred Cis-Regulatory Configuration of Arabidopsis WUSCHEL-Related Homeobox 14”.

The data set has as its target T1, AtWOX14 (homodimer on DNA) (Arabidopsis thaliana) (UniProt Q9LM84).
T1 sequence (looked up): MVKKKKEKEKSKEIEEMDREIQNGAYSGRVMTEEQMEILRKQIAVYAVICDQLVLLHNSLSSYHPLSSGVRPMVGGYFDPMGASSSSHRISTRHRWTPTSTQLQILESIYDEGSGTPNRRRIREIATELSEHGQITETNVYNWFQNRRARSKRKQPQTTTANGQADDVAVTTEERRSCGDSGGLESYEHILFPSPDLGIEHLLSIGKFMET
Briefly: EMSA. As to conditions: 50-200 nM WOX14, no dimeric shift; EMSA: 10 mM Tris (pH not stated), 50 mM NaCl, 1 mM MgCl2, 4% glycerol, 0.5 mM EDTA, 25 C 40 min, 30 ng probe in 20 uL; 6% native PAGE, 0.5x TBE, 4 C; recombinant protein; residues 1-211; protein details: N-terminal His (pETG20A-His).

No signal at the amounts used counts as a negative. Tags and fusion partners may be left off the protein sequences shown.

Regarding “ATGCTAGCTCCATCTGTATTGATTGTTTATGGCGGTGACGTACT (double strand) [M1]”, the binding result is “no binding”.
